Source: PubChem BioAssay AID256 (DTP/NCI, 2004)
The list shows only some results of the screen, not a fair sample: it gathers tests that were run many times, whatever their T/C, doses with no T/C, and many T/C values between a quarter and a half above the control. Further doses and runs are listed elsewhere. T/C gives the treated animals as a percentage of the vehicle group. Some entries give survivors of the animals treated and no T/C: the source files T/C as zero there, which appears to mark a toxic dose or a test without result, not a measured value. Some doses without a T/C left all or most animals alive at the check, yet need not have been tolerated: the source hardly ever lists a survival T/C far under the control, and the zero likely stands for such cases as well. Counts of survivors are from the toxicity check (mostly the fifth day) where no day follows; animals may have died later. Schedule codes are those of the source, read here as Q, the interval in days (D) or hours (H), X, the number of doses. Some molecules as drawn cover several salts, stereoisomers or complexes of the source; a dose is that of the sample tested. For survival time, this PubChem deposit counts one and a half times the control or more as active, and values a quarter to a half above the control carry no call in these data; other NCI protocols may use other cut-offs. Some T/C values are followed by the survivors on the day toxicity was checked, most often the fifth; without a count, all were alive then.

Tested on: CD2F1 mice, L1210 leukemia ip, survival T/C
Assay: NCI In Vivo Anticancer Drug Screen. Data for tumor model L1210 Leukemia (intraperitoneal) in CD2F1 (CDF1) mice
Conditions: higher T/C = longer survival
Procedure, shortened: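 Mice carrying a transplanted tumor received test compound or vehicle alone. The value is the measurement in the treated group divided by that in the vehicle-treated control group.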

[1] = T/C endpoint: mean survival time, dose: 400.0 mg/kg/injection, schedule: Q04DX003 (ip), vehicle: saline with Tween-80
[2] = T/C endpoint: mean survival time, dose: 400.0 mg/kg/injection, schedule: Q01DX009 (ip), vehicle: saline with Tween-80
[3] = T/C endpoint: mean survival time, dose: 25.0 mg/kg/injection, schedule: Q01DX005 (ip), vehicle: water
[4] = T/C endpoint: mean survival time, dose: 100.0 mg/kg/injection, schedule: Q01DX005 (ip), vehicle: water
[5] = T/C endpoint: mean survival time, dose: 200.0 mg/kg/injection, schedule: Q01DX005 (ip), vehicle: water
[6] = T/C endpoint: mean survival time, dose: 300.0 mg/kg/injection, schedule: Q01DX001 (ip), vehicle: saline
[7] = T/C endpoint: mean survival time, dose: 400.0 mg/kg/injection, schedule: Q04DX003 (ip), vehicle: Klucel (hydroxypropylcellulose) (HPC)

c1cc2c(cc1NC1=NCCO1)CCC2 was tested, and the survivor count (T/C endpoint: mean survival time, dose: 100.0 mg/kg/injection, schedule: Q04DX003 (ip), vehicle: saline with Tween-80) was 1 of 6, the survivor count (T/C endpoint: mean survival time, dose: 200.0 mg/kg/injection, schedule: Q04DX003 (ip), vehicle: saline with Tween-80) was 0 of 6 and the survivor count [1] was 0 of 6.
With COc1cc2cnccc2cc1O the survivor count (T/C endpoint: mean survival time, dose: 200.0 mg/kg/injection, schedule: Q01DX009 (ip), vehicle: water) was 0 of 6 and the survivor count (T/C endpoint: mean survival time, dose: 400.0 mg/kg/injection, schedule: Q01DX009 (ip), vehicle: water) was 0 of 6.
In the case of C(/C=C\c1ccccc1)=Nc1ccccc1, the survivor count (T/C endpoint: mean survival time, dose: 200.0 mg/kg/injection, schedule: Q01DX001 (ip), vehicle: saline sonified) is reported as 1 of 6 and the survivor count (T/C endpoint: mean survival time, dose: 400.0 mg/kg/injection, schedule: Q01DX001 (ip), vehicle: saline sonified) is reported as 0 of 6.
C(=N/NC1=NCCN1)/c1c2ccccc2c(/C=N\NC2=NCCN2)c2ccccc12 was tested, and the T/C (T/C endpoint: median survival time, dose: 0.75 mg/kg/injection, schedule: Q01DX009 (ip), vehicle: suspension in saline) was 139 % of control, the T/C (T/C endpoint: median survival time, dose: 0.78 mg/kg/injection, schedule: Q01DX009 (ip), vehicle: saline) was 148 % of control and the T/C (T/C endpoint: median survival time, dose: 1.5 mg/kg/injection, schedule: Q01DX009 (ip), vehicle: suspension in saline) was 134 % of control. For the same molecule, the T/C (T/C endpoint: median survival time, dose: 1.56 mg/kg/injection, schedule: Q01DX009 (ip), vehicle: saline) was 128 % of control, the T/C (T/C endpoint: median survival time, dose: 3.12 mg/kg/injection, schedule: Q01DX009 (ip), vehicle: saline) was 137 % of control and the T/C (T/C endpoint: median survival time, dose: 6.0 mg/kg/injection, schedule: Q01DX009 (ip), vehicle: suspension in saline) was 149 % of control. The T/C (T/C endpoint: median survival time, dose: 6.25 mg/kg/injection, schedule: Q01DX009 (ip), vehicle: saline) was 132 % of control, the T/C (T/C endpoint: median survival time, dose: 12.0 mg/kg/injection, schedule: Q01DX009 (ip), vehicle: suspension in saline) was 137 % of control and the T/C (T/C endpoint: median survival time, dose: 24.0 mg/kg/injection, schedule: Q01DX009 (ip), vehicle: suspension in saline) was 141 % of control. The T/C (T/C endpoint: median survival time, dose: 25.0 mg/kg/injection, schedule: Q01DX009 (ip), vehicle: saline) was 130 % of control and the T/C (T/C endpoint: median survival time, dose: 50.0 mg/kg/injection, schedule: Q01DX009 (ip), vehicle: saline) was 132 % of control.
With CC(=O)NO the T/C (T/C endpoint: median survival time, dose: 200.0 mg/kg/injection, schedule: Q01DX009 (ip), vehicle: water) was 135 % of control, the T/C (T/C endpoint: median survival time, dose: 200.0 mg/kg/injection, schedule: Q03HX024 (ip), vehicle: water) was 143 % of control and the T/C (T/C endpoint: median survival time, dose: 400.0 mg/kg/injection, schedule: Q01DX009 (ip), vehicle: water) was 144 % of control. The T/C (T/C endpoint: median survival time, dose: 500.0 mg/kg/injection, schedule: Q01DX009 (ip), vehicle: water) was 141 % of control, the T/C (T/C endpoint: median survival time, dose: 1000.0 mg/kg/injection, schedule: Q01DX009 (ip), vehicle: water) was 148 % of control and the survivor count (T/C endpoint: median survival time, dose: 1200.0 mg/kg/injection, schedule: Q01DX009 (ip), vehicle: water) was 4 of 6. For the same molecule, the survivor count (T/C endpoint: median survival time, dose: 1600.0 mg/kg/injection, schedule: Q01DX009 (ip), vehicle: water) was 4 of 6.
With O=C(c1ccc2c(c1)OCO2)c1ccc[nH]1 the survivor count [1] was 6 of 6.
With O=C(Sc1ccccc1)C(CO)c1ccccc1 (stereo not drawn) the survivor count (T/C endpoint: mean survival time, dose: 100.0 mg/kg/injection, schedule: Q04DX002 (ip), vehicle: saline with Tween-80) was 2 of 3, the survivor count (T/C endpoint: mean survival time, dose: 200.0 mg/kg/injection, schedule: Q04DX002 (ip), vehicle: saline with Tween-80) was 1 of 3 and the survivor count (T/C endpoint: mean survival time, dose: 400.0 mg/kg/injection, schedule: Q04DX002 (ip), vehicle: saline with Tween-80) was 0 of 3.
With ClCc1ccc2ccccc2n1 the survivor count [2] was 2 of 6.
For N=c1ncn(C2OC(COP(=O)(O)O)C(O)C2O)c2nc[nH]c12 (stereo not drawn), the survivor count [3] was 6 of 6, the survivor count (T/C endpoint: mean survival time, dose: 50.0 mg/kg/injection, schedule: Q01DX005 (ip), vehicle: water) was 6 of 6 and the survivor count (T/C endpoint: mean survival time, dose: 90.0 mg/kg/injection, schedule: Q01DX005 (ip), vehicle: water) was 3 of 3. The survivor count [4] was 0 of 6, the survivor count (T/C endpoint: mean survival time, dose: 180.0 mg/kg/injection, schedule: Q01DX005 (ip), vehicle: water) was 2 of 3 and the survivor count [5] was 0 of 6.
With COc1cc2c(c(OC)c1OC)-c1ccc(SC)c(=O)cc1[C@@H](NC(=O)NCCCl)CC2 the T/C [3] was 143 % of control, the T/C (T/C endpoint: mean survival time, dose: 25.0 mg/kg/injection, schedule: Q01DX009 (ip), vehicle: water) was 136 % of control [5 of 6 alive] and the T/C (T/C endpoint: mean survival time, dose: 50.0 mg/kg/injection, schedule: Q01DX009 (ip), vehicle: water) was 129 % of control [4 of 6 alive]. For the same molecule, the survivor count (T/C endpoint: mean survival time, dose: 100.0 mg/kg/injection, schedule: Q01DX009 (ip), vehicle: water) was 3 of 6.
For Cc1[nH]c2ccc([N+](=O)[O-])cc2c1CN(C)C, the survivor count [6] was 0 of 6.
With Cc1cccc(N=Cc2ccc3c(c2)OCO3)c1 the survivor count [7] was 6 of 6.
For O=[N+]([O-])/C(=C/c1ccccc1)c1ccccc1, the survivor count (T/C endpoint: mean survival time, dose: 100.0 mg/kg/injection, schedule: Q04DX003 (ip), vehicle: Klucel (hydroxypropylcellulose) (HPC)) was 5 of 6, the survivor count (T/C endpoint: mean survival time, dose: 200.0 mg/kg/injection, schedule: Q04DX003 (ip), vehicle: Klucel (hydroxypropylcellulose) (HPC)) was 2 of 6 and the survivor count [7] was 0 of 6.
For COc1ccc2c(c1)OC(C)(C)C(c1ccccc1)=C2c1ccc(OCCN2CCCC2)cc1, the survivor count (T/C endpoint: mean survival time, dose: 150.0 mg/kg/injection, schedule: Q01DX001 (ip), vehicle: saline) was 0 of 6 and the survivor count [6] was 0 of 6.
With COC1=C(C)C(=O)C2=C(C1=O)C(CO)N1C(C#N)C3CC4C(C1C2N1CCOC41)N3C (stereo not drawn) the survivor count (T/C endpoint: median survival time, dose: 2.0 mg/kg/injection, schedule: Q01DX005 (ip), vehicle: acid diluted with saline) was 6 of 6 and the survivor count (T/C endpoint: median survival time, dose: 2.0 mg/kg/injection, schedule: Q01DX009 (ip), vehicle: saline + alcohol) was 4 of 6.
With CNc1ncnc2c1cnn2C1OC(CO)C(O)C1O (stereo not drawn) the survivor count [4] was 5 of 6 and the survivor count [5] was 0 of 6.
For COc1ccc(NC(=O)Nc2cc(Cl)ccc2Cl)cc1, the survivor count (T/C endpoint: mean survival time, dose: 100.0 mg/kg/injection, schedule: Q01DX009 (ip), vehicle: saline with Tween-80) was 6 of 6.
For O=[N+]([O-])O.O=[N+]([O-])O.[NH-]C(c1ccccc1)C([NH-])c1ccccc1.[Pt+2] (stereo not drawn), the T/C (T/C endpoint: mean survival time, dose: 6.25 mg/kg/injection, schedule: Q04DX003 (ip), vehicle: saline with Tween-80) was 131 % of control [5 of 6 alive].
COc1ccccc1N=Nc1c(O)n(-c2ccccc2OC)c(=S)n(-c2ccccc2OC)c1=O was tested, and the survivor count (T/C endpoint: mean survival time, dose: 400.0 mg/kg/injection, schedule: Q01DX001 (ip), vehicle: saline with Tween-80) was 0 of 6.
O=C(O)C(O)c1ccccc1 (stereo not drawn) was tested, and the survivor count (T/C endpoint: mean survival time, dose: 400.0 mg/kg/injection, schedule: Q04DX002 (ip), vehicle: saline) was 1 of 3.
For CCNc1nc(Cl)nc(NC(C)C)n1, the survivor count [2] was 1 of 6.
In the case of CCC(=O)NCCc1ccccc1, the survivor count (T/C endpoint: mean survival time, dose: 100.0 mg/kg/injection, schedule: Q01DX001 (ip), vehicle: saline with Tween-80) is reported as 6 of 6 and the survivor count [2] is reported as 2 of 6.
In the case of CN1CCN(CCCN2C(=O)C3CC=CCC3C2=O)CC1 (stereo not drawn), the survivor count (T/C endpoint: mean survival time, dose: 400.0 mg/kg/injection, schedule: Q01DX001 (ip), vehicle: saline) is reported as 3 of 6.
In the case of CN1C=Cc2ccccc2C1, the survivor count (T/C endpoint: mean survival time, dose: 200.0 mg/kg/injection, schedule: Q01DX009 (ip), vehicle: saline with Tween-80) is reported as 3 of 6 and the survivor count [2] is reported as 0 of 6.
CC1=CC(C)=Nc2ccc(Cl)cc2N1 was tested, and the survivor count (T/C endpoint: mean survival time, dose: 100.0 mg/kg/injection, schedule: Q01DX009 (ip), vehicle: saline) was 6 of 6, the survivor count (T/C endpoint: mean survival time, dose: 200.0 mg/kg/injection, schedule: Q01DX009 (ip), vehicle: saline) was 6 of 6 and the survivor count (T/C endpoint: mean survival time, dose: 400.0 mg/kg/injection, schedule: Q01DX009 (ip), vehicle: saline) was 2 of 6.
With N=c1ccn2c(n1)OC1C(OC(=O)C34CC5CC(CC(C5)C3)C4)C(COC(=O)C34CC5CC(CC(C5)C3)C4)OC12 (stereo not drawn) the survivor count (T/C endpoint: mean survival time, dose: 100.0 mg/kg/injection, schedule: Q01DX005 (ip), vehicle: distilled water + Tween-80) was 3 of 6 and the survivor count (T/C endpoint: mean survival time, dose: 200.0 mg/kg/injection, schedule: Q01DX005 (ip), vehicle: distilled water + Tween-80) was 1 of 6.
For CN1CCC(C#N)(c2ccccn2)CC1, the survivor count (T/C endpoint: mean survival time, dose: 20.0 mg/kg/injection, schedule: Q01DX009 (ip), vehicle: saline with Tween-80) was 3 of 6.
Cc1cn(C2CC(OS(C)(=O)=O)C(COC(c3ccccc3)(c3ccccc3)c3ccccc3)O2)c(=O)[nH]c1=O (stereo not drawn) was tested, and the survivor count (T/C endpoint: mean survival time, dose: 100.0 mg/kg/injection, schedule: Q01DX005 (ip), vehicle: other) was 6 of 6.
